Assay results as given in publication PMC7819943, “Rice protein-binding microarrays: a tool to detect cis-acting elements near promoter regions in rice”.
Some of the results follow.

Sequences of proteins named here, by UniProt entry; tags and fusion partners are left off.
UniProt Q0JBA9, entry or part of it: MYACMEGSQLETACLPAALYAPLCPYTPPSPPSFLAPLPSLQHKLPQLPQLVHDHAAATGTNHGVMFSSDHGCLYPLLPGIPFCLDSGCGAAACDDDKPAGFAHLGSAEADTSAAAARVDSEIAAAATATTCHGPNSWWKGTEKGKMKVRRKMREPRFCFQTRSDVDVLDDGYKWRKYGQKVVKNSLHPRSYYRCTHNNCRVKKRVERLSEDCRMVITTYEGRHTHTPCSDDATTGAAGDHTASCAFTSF

Molecular target: OsWRKY34 (Oryza sativa, UniProt Q0JBA9 1-250)
Experiment: protein-binding microarray (RPBM); PBS, 2% BSA, 51.3 ng/ul salmon testes DNA, 50 uM zinc acetate, 200 nM TF, 25 C, 1 h; high values mean tight binding
Conditions: protein: recombinant; tags: N-terminal polyhistidine and DsRed monomer fusion (pET32a); label: CyDye5-dUTP incorporated in the synthesized complementary strand; 3' TTTTT single-stranded linker to array surface; dsDNA, one strand shown
In short: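 For the binding signal, per-feature fluorescence intensity was read in arbitrary units on an Axon 4000B scanner. Before scanning, a 2% BSA-blocked custom Agilent array made double-stranded with Cy5-dUTP was washed after 1 h at 25 °C with 200 nM protein and 50 µM zinc acetate. The proteins were Ni–NTA-purified transcription factors with N-terminal polyhistidine and DsRed fusions, expressed in E. coli BL21-CodonPlus.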

| Sequence | binding signal |
| --- | --- |
| CATCCACCGCCACCGCCACCGCCACCGCCACCTCACCACCCGGAGTCACCTAGTGCAG | 14000 fluorescence intensity (a.u.) |
| TTTCTCTCACATCTTTTATTTTATTATTAAAATATGTTTACGGAGTCACCTAGTGCAG | 8550 fluorescence intensity (a.u.) |
| CATCCGCGGCAGCAGCCGCCCGCCGACCGCGCGCTTCTCCCGGAGTCACCTAGTGCAG | 8690 fluorescence intensity (a.u.) |
| CAATCAAACGGTCATTTTTATATTTTTCCTATGTTTTACACGGAGTCACCTAGTGCAG | 12300 fluorescence intensity (a.u.) |
| ATGGGCTTCTTTTTGTGGTGTACATGATTTAGACTTTTTGCGGAGTCACCTAGTGCAG | 10700 fluorescence intensity (a.u.) |
| CTCCGTTGTGCTCTGTCTCTCTACCGCCACCATCCACTGCCGGAGTCACCTAGTGCAG | 12000 fluorescence intensity (a.u.) |
| GCTTTGTGCACGTATATATATTTCACCGTCTCGTTCAATCCGGAGTCACCTAGTGCAG | 9640 fluorescence intensity (a.u.) |
| AAACTTCTGATCTTGGTTGTATACTATATTTTCCCTTTCACGGAGTCACCTAGTGCAG | 8290 fluorescence intensity (a.u.) |
| CCCAATTTTTTAATAGTGTTCCGTTTCAGAAATCACTTTCCGGAGTCACCTAGTGCAG | 8400 fluorescence intensity (a.u.) |
| TCTCCTCCATCATCGCAGCCAACTCCAACATCCTGAGCTCCGGAGTCACCTAGTGCAG | 9510 fluorescence intensity (a.u.) |
| CCGCCTAGATGGCATTCCCATCAAGCACTTCAGAGTCTTCCGGAGTCACCTAGTGCAG | 8270 fluorescence intensity (a.u.) |
| ACATAAACTTTGCACTTTTCTTACTTTCCACCCACACTAACGGAGTCACCTAGTGCAG | 10100 fluorescence intensity (a.u.) |
| CCACCTTTATCTATTTGTTTTTTTGTTCAGTCGTTGGAATCGGAGTCACCTAGTGCAG | 10400 fluorescence intensity (a.u.) |
| GATTGGGGTGTGACACGGGTACGACGTGAGGGAGGTGGTTCGGAGTCACCTAGTGCAG | 10400 fluorescence intensity (a.u.) |
| GCGGCTGCGGGCCTGCGGCTTCCTTCGCTAGGTTGACTACCGGAGTCACCTAGTGCAG | 8300 fluorescence intensity (a.u.) |
| GACGCGGCGCCGAACGGGTCGCTGGGCGGGTACGACGTGACGGAGTCACCTAGTGCAG | 9200 fluorescence intensity (a.u.) |
| GAACCTCTCGTAGCCTCACATCTCGTCATTCCTCCCTCCTCGGAGTCACCTAGTGCAG | 8270 fluorescence intensity (a.u.) |
| CTGGTGCTTGTATCTCCTAGTTTGTGGTATTGGGATTTTTCGGAGTCACCTAGTGCAG | 14700 fluorescence intensity (a.u.) |
| AACTCCCATCTGTTTTCGTTTGAGCTGATTAGGACTTTGTCGGAGTCACCTAGTGCAG | 8640 fluorescence intensity (a.u.) |
| GGTTTGTCATTTTTATTTATTTTTTGCATAATTCGTTTTACGGAGTCACCTAGTGCAG | 11800 fluorescence intensity (a.u.) |
| ATCGTGAACTCTATTTTCGTAGGCACGGATTGATGCATTACGGAGTCACCTAGTGCAG | 8220 fluorescence intensity (a.u.) |

Pulled one by one from above, 2 records:

| Sequence | binding signal |
| --- | --- |
| CCACCTTTATCTATTTGTTTTTTTGTTCAGTCGTTGGAATCGGAGTCACCTAGTGCAG | 10400 fluorescence intensity (a.u.) |
| TCTCCTCCATCATCGCAGCCAACTCCAACATCCTGAGCTCCGGAGTCACCTAGTGCAG | 9510 fluorescence intensity (a.u.) |

(cont.)

| Sequence | binding signal |
| --- | --- |
| CCACTCTCCGGCGCACCTATTTTCCATTTATATATATATGCGGAGTCACCTAGTGCAG | 9670 fluorescence intensity (a.u.) |
| CCCTCTCACCACCACCACCACCACCACCCGAGCAATAATTCGGAGTCACCTAGTGCAG | 8650 fluorescence intensity (a.u.) |
| CCTTGCAAACATGTCCTTCGTTTCCGTATCATGCGATTGGCGGAGTCACCTAGTGCAG | 9020 fluorescence intensity (a.u.) |
| AGTTGATTATGAGTCTTGTGACTTGTGGGGTTGTTTTGGTCGGAGTCACCTAGTGCAG | 12700 fluorescence intensity (a.u.) |
| TTCTTAGTTGTATTTCTATATGGACTGTAGTCTCCTCTTCCGGAGTCACCTAGTGCAG | 9170 fluorescence intensity (a.u.) |
| ATATATAAGCAACCGGTTATATATTTGTATTGTGTTTTTTCGGAGTCACCTAGTGCAG | 8960 fluorescence intensity (a.u.) |
| GTTGGATTGTTCTTCTGTCTCTGCCAAATCGTTGATGTCACGGAGTCACCTAGTGCAG | 11000 fluorescence intensity (a.u.) |
| TTCCCTTACGTAGTCTCTCGGGAGTATGATCTTGTAATTTCGGAGTCACCTAGTGCAG | 8840 fluorescence intensity (a.u.) |
| AGAACTCCCTCCGTCCCGTTTTTAGCGCACTCATCTTTTTCGGAGTCACCTAGTGCAG | 12500 fluorescence intensity (a.u.) |
| TTACCTCGCGTACCCTCGCACCCGTCTCCCGCAGACAGATCGGAGTCACCTAGTGCAG | 8480 fluorescence intensity (a.u.) |
| GACCACACCAAAACTGCAATCACCTCACTCATCCAGTCATCGGAGTCACCTAGTGCAG | 9150 fluorescence intensity (a.u.) |
| GTTTCTAATGCTCAGAGCCTGCAGCTTCTCCAGCCACTCACGGAGTCACCTAGTGCAG | 9340 fluorescence intensity (a.u.) |
| ACATACAACTATTTTCGAAATGTTTATTTATCTATAAAGTCGGAGTCACCTAGTGCAG | 8530 fluorescence intensity (a.u.) |
| CTCCCTCGCCCACCGCCGCCGGCGCCGCCTCCCTCCCATGCGGAGTCACCTAGTGCAG | 10100 fluorescence intensity (a.u.) |
| AACTTGTTGGATTCTTGCATGCCTCTGGGCCTGAAAAATACGGAGTCACCTAGTGCAG | 9200 fluorescence intensity (a.u.) |
| TCGATTCTAACTCCAGATTTGTAGTTCATTCCCGTCATTTCGGAGTCACCTAGTGCAG | 8350 fluorescence intensity (a.u.) |
| GTATGTATTCTTAGGGATAGTTTGTGCGTGTTACGAGTGACGGAGTCACCTAGTGCAG | 8700 fluorescence intensity (a.u.) |
| ATCGATGTGTTTTTTTATAATTTGTCGGTTGTTGCTTAATCGGAGTCACCTAGTGCAG | 10800 fluorescence intensity (a.u.) |
| TCTGTTATAACGATTATATGTTAGAGTGCATGCATTTTATCGGAGTCACCTAGTGCAG | 9070 fluorescence intensity (a.u.) |
| CATACCAATTTACCTGTTGACTAAGGTCGTGTCATTTTAGCGGAGTCACCTAGTGCAG | 9600 fluorescence intensity (a.u.) |
| CCCATTTCGCATCCGGTTCTAGCTTTCCTTGGCTTCCCATCGGAGTCACCTAGTGCAG | 8170 fluorescence intensity (a.u.) |
